Laboratory results: patent publication US20250154171A1, “RAS INHIBITORS” (Revolution Medicines, Inc., priority 2023, published 2025)
Some entries share one result that the patent states for a list of compounds.

Protein sequences, listed by entry. Tags and fused reporters are not part of them. Lines headed by an entry give the natural chain unless they say otherwise; changes in a name come on top. Residues count along the entry.
UniProt P01116, 1-188 isoform P01116-2 G12V: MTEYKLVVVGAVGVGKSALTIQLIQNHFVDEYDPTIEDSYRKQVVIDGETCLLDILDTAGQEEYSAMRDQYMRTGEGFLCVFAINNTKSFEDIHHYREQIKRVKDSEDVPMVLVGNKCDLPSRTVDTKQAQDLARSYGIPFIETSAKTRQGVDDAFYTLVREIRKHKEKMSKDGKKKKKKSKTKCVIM
UniProt P62937, whole entry: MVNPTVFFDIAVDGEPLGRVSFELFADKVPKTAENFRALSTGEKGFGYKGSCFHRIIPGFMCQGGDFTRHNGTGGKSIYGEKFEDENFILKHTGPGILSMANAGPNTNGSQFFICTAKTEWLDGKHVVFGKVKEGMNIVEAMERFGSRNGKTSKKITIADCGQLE

Columns and labels:
Capan-1 (K-Ras G12V) = test: CellTiter-Glo cell viability assay, Capan-1; assay type: cell-based, human; conditions: 5-day treatment, Capan-1 versus A375
K-RasG12V = K-RasG12V (Homo sapiens, UniProt P01116+P62937, G12V); test: Disruption of BRAF RBD interaction with K-Ras (TR-FRET / MOA assay), K-RasG12V; assay type: biochemical; conditions: TR-FRET with cyclophilin A and GST-BRAF RBD, read-out: IC50 with respect to K-RasG12V (disruption of BRAF RBD interaction)

Row | Compound | decrease in cell viability with respect to KRAS G12V (Capan-1) versus wild-type KRAS (A375) (Capan-1 (K-Ras G12V)) | IC50 (K-RasG12V)
1 | CO[C@@H](C)c1ncc(N2CCN(C3CC3)CC2)cc1-c1c2c3cc(ccc3n1CCOC1CCOCC1)-c1csc(n1)[C@@H](OCC(F)F)[C@H](NC(=O)[C@H]1[C@H](C)[C@@H]1c1ncccn1)C(=O)N1CCC[C@H](N1)C(=O)OCC(C)(C)C2 (racemic) [Example A784] | greater decrease in cell viability | < 1 µM
2 | CO[C@@H](C)c1ncc(N2CCN(C3CC3)CC2)cc1-c1c2c3cc(ccc3n1CCOC1CCOCC1)-c1csc(n1)[C@@H](N1CCOCC1)[C@H](NC(=O)[C@@H]1[C@@H](C)[C@H]1c1cscn1)C(=O)N1CCC[C@H](N1)C(=O)OCC(C)(C)C2 (racemic) [Example A785] | greater decrease in cell viability | < 1 µM
3 | CO[C@@H](C)c1ncc(N2CCN(C3CC3)CC2)cc1-c1c2c3cc(ccc3n1CCOC1CCOCC1)-c1csc(n1)[C@@H](N1CCOCC1)[C@H](NC(=O)N1CC[C@H]1[C@@H](C)O)C(=O)N1CCC[C@H](N1)C(=O)OCC(C)(C)C2 (racemic) [Example A786] | greater decrease in cell viability | < 1 µM
4 | CCO[C@@H]1c2nc(cs2)-c2ccc3c(c2)c(c(-c2cccnc2[C@H](C)OC)n3CC)CC(C)(C)COC(=O)[C@@H]2CCCN(N2)C(=O)[C@H]1NC(=O)C12CCC(C(F)(F)F)(C1)O2 (racemic) [Example A787] | greater decrease in cell viability | < 1 µM
5 | CCO[C@@H]1c2nc(cs2)-c2ccc3c(c2)c(c(-c2cc(N4CCN(C5COC5)CC4)cnc2[C@H](C)OC)n3CCOC2CCOCC2)CC(C)(C)COC(=O)[C@@H]2CCCN(N2)C(=O)[C@H]1NC(=O)N1CCC1[C@@H](C)O (mixture of isomers) [Example A788] | greater decrease in cell viability | < 1 µM
6 | CCO[C@@H]1c2nc(cs2)-c2ccc3c(c2)c(c(-c2cc(N4CCN(C5CC5)CC4)cnc2[C@H](C)OC)n3CCOC2CCOCC2)CC(C)(C)COC(=O)[C@@H]2CCCN(N2)C(=O)[C@H]1NC(=O)N1CC[C@H]1[C@@H](C)O (racemic) [Example A790] | greater decrease in cell viability | < 1 µM
7 | CCO[C@@H]1c2nc(cs2)-c2ccc3c(c2)c(c(-c2cc(N4CCN(C5CC5)CC4)cnc2[C@H](C)OC)n3CCOC2CCOCC2)CC(C)(C)COC(=O)[C@@H]2CCCN(N2)C(=O)[C@H]1NC(=O)N1C[C@@H]2COCC[C@@H]21 (racemic) [Example A791] | greater decrease in cell viability | < 1 µM
8 | CCO[C@@H]1c2nc(cs2)-c2ccc3c(c2)c(c(-c2cc(N4CCN(C5CC5)CC4)cnc2[C@H](C)OC)n3CCOC2CCOCC2)CC(C)(C)COC(=O)[C@@H]2CCCN(N2)C(=O)[C@H]1NC(=O)[C@@H]1[C@@H](C)[C@H]1C(C)C (racemic) [Example A792] | greater decrease in cell viability | < 1 µM
9 | CO[C@@H](C)c1ncc(N2CCN(C3COC3)CC2)cc1-c1c2c3cc(ccc3n1CCOC1CCOCC1)-c1csc(n1)[C@@H](OCC(F)F)[C@H](NC(=O)N1CC[C@H]1C)C(=O)N1CCC[C@H](N1)C(=O)OCC(C)(C)C2 (racemic) [Example A793] | greater decrease in cell viability | < 1 µM
10 | CO[C@@H](C)c1ncc(N2CCCN(C3COC3)CC2)cc1-c1c2c3cc(ccc3n1CCOC1CCOCC1)-c1csc(n1)[C@@H](OCC(F)F)[C@H](NC(=O)[C@H]1[C@H](C)[C@@H]1C)C(=O)N1CCC[C@H](N1)C(=O)OCC(C)(C)C2 (racemic) [Example A794] | greater decrease in cell viability | < 1 µM
11 | CCO[C@@H]1c2nc(cs2)-c2ccc3c(c2)c(c(-c2cc(N4CCCN(C5COC5)CC4)cnc2[C@H](C)OC)n3CCOC2CCOCC2)CC(C)(C)COC(=O)[C@@H]2CCCN(N2)C(=O)[C@H]1NC(=O)[C@H]1[C@H](C)[C@@H]1C (racemic) [Example A795] | greater decrease in cell viability | < 1 µM
12 | CO[C@@H](C)c1ncc(N2CCN(C3CC3)CC2)cc1-c1c2c3cc(ccc3n1CCOC1CCOCC1)-c1csc(n1)[C@@H](N1CCOCC1)[C@H](NC(=O)[C@H]1[C@H](C)[C@@H]1c1cocn1)C(=O)N1CCC[C@H](N1)C(=O)OCC(C)(C)C2 (racemic) [Example A796] | greater decrease in cell viability | < 1 µM
13 | CO[C@@H](C)c1ncc(N2CCN(C3CC3)CC2)cc1-c1c2c3cc(ccc3n1CCOC1CCOCC1)-c1csc(n1)[C@@H](N1CCOCC1)[C@H](NC(=O)[C@@H]1[C@@H](C)[C@H]1c1cocn1)C(=O)N1CCC[C@H](N1)C(=O)OCC(C)(C)C2 (racemic) [Example A797] | greater decrease in cell viability | < 1 µM
14 | CO[C@@H](C)c1ncc(N2CCN(C3CC3)CC2)cc1-c1c2c3cc(ccc3n1CCOC1CCOCC1)-c1csc(n1)[C@@H](N1CCOCC1)[C@H](NC(=O)[C@H]1[C@H](C)[C@@H]1C1=NC=NCC1)C(=O)N1CCC[C@H](N1)C(=O)OCC(C)(C)C2 (racemic) [Example A798] | greater decrease in cell viability | < 1 µM
15 | CO[C@@H](C)c1ncc(N2CCN(C3CC3)CC2)cc1-c1c2c3cc(ccc3n1CCOC1CCOCC1)-c1csc(n1)[C@@H](N1CCOCC1)[C@H](NC(=O)[C@H]1[C@@H](C)[C@H]1C1=NC=NCC1)C(=O)N1CCC[C@H](N1)C(=O)OCC(C)(C)C2 (racemic) [Example A799] | greater decrease in cell viability | < 1 µM
16 | CO[C@@H](C)c1ncc(N2CCN(C)CC2)cc1-c1c2c3cc(ccc3n1CCOC1CCOCC1)-c1csc(n1)[C@@H](N1CCOCC1)[C@H](NC(=O)[C@@H]1[C@@H](C)[C@H]1C(C)C)C(=O)N1CCC[C@H](N1)C(=O)OCC(C)(C)C2 (racemic) [Example A800] | greater decrease in cell viability | < 1 µM
17 | CO[C@@H](C)c1ncc(N2CCN(C)CC2)cc1-c1c2c3cc(ccc3n1CCOC1CCOCC1)-c1csc(n1)[C@@H](N1CCOCC1)[C@H](NC(=O)[C@H]1[C@H](C)[C@@H]1C(C)C)C(=O)N1CCC[C@H](N1)C(=O)OCC(C)(C)C2 (racemic) [Example A801] | greater decrease in cell viability | < 1 µM
18 | CCO[C@@H]1c2nc(cs2)-c2ccc3c(c2)c(c(-c2cc(N4CCN(C5COC5)CC4)cnc2[C@H](C)OC)n3CCOC2CCOCC2)CC(C)(C)COC(=O)[C@@H]2CCCN(N2)C(=O)[C@H]1NC(=O)N1CC[C@H]1C (racemic) [Example A802] | greater decrease in cell viability | < 1 µM
19 | CCO[C@@H]1c2nc(cs2)-c2ccc3c(c2)c(c(-c2cc(N4CCN(C5COC5)CC4)cnc2[C@H](C)OC)n3CCOC2CCOCC2)CC(C)(C)COC(=O)[C@@H]2CCCN(N2)C(=O)[C@H]1NC(=O)[C@H]1[C@H](C)[C@@H]1C(C)C (racemic) [Example A803] | greater decrease in cell viability | < 1 µM
20 | CCO[C@@H]1c2nc(cs2)-c2ccc3c(c2)c(c(-c2cc(N4CCN(C5COC5)CC4)cnc2[C@H](C)OC)n3CCOC2CCOCC2)CC(C)(C)COC(=O)[C@@H]2CCCN(N2)C(=O)[C@H]1NC(=O)[C@@H]1[C@@H](C)[C@H]1C(C)C (racemic) [Example A804] | greater decrease in cell viability | < 1 µM
21 | CCO[C@@H]1c2nc(cs2)-c2ccc3c(c2)c(c(-c2cc(N4CCN(C5CC5)CC4)cnc2[C@H](C)OC)n3CCOC2CCOCC2)CC(C)(C)COC(=O)[C@@H]2CCCN(N2)C(=O)[C@H]1NC(=O)[C@H]1[C@H](C)[C@@H]1C (racemic) [Example A805] | greater decrease in cell viability | < 1 µM
22 | CO[C@@H](C)c1ncc(N2CCN(C3CC3)CC2)cc1-c1c2c3cc(ccc3n1CCOC(C)C)-c1csc(n1)[C@@H](OCC(F)F)[C@H](NC(=O)N1C[C@@H]3COCC[C@@H]31)C(=O)N1CCC[C@H](N1)C(=O)OCC(C)(C)C2 (racemic) [Example A806] | greater decrease in cell viability | < 1 µM
23 | CCO[C@@H]1c2nc(cs2)-c2ccc3c(c2)c(c(-c2cc(N4CCCN(C5CC5)CC4)cnc2[C@H](C)OC)n3CCOC2CCOCC2)CC(C)(C)COC(=O)[C@@H]2CCCN(N2)C(=O)[C@H]1NC(=O)[C@H]1[C@H](C)[C@@H]1C (racemic) [Example A807] | greater decrease in cell viability | < 1 µM
24 | CO[C@@H](C)c1ncc(N2CCCN(C)CC2)cc1-c1c2c3cc(ccc3n1CCOC1CCOCC1)-c1csc(n1)[C@@H](OCC(F)F)[C@H](NC(=O)[C@H]1[C@H](C)[C@@H]1C)C(=O)N1CCC[C@H](N1)C(=O)OCC(C)(C)C2 (racemic) [Example A808] | greater decrease in cell viability | < 1 µM
25 | CO[C@@H](C)c1ncc(N2CCN(C)CC2)cc1-c1c2c3cc(ccc3n1CCOC(C)C)-c1csc(n1)[C@@H](OCC(F)F)[C@H](NC(=O)N1C[C@@H]3COCC[C@@H]31)C(=O)N1CCC[C@H](N1)C(=O)OCC(C)(C)C2 (racemic) [Example A811] | greater decrease in cell viability | < 1 µM
